From paper PMC5323046
No constants are given. Whether binding was seen depends on the method and setting. In cells and extracts the contact can be indirect. These calls come from enrichment with a bait or labelling near it, and not all partners need be listed. Where a sequence is shown, tags or fusion partners need not be part of it.

B1: SYTL5, Q8TDW5 1-730 (protein)
chain: MSKNSEFINLSFLLDHEKEMILGVLKRDEYLKKVEDKRIRKLKNELLEAKRRSGKTQQEASRVCVHCHRNLGLIFDRGDPCQACSLRVCRECRVAGPNGSWKCTVCDKIAQLRIITGEWFFEEKAKRFKQVNVLGTDVVRQSILRRSPGAEEVQSQEQTRQDAEKSDTSPVAGKKASHDGPKRKGFLLSKFRSATRGEIITPKTDTGRSYSLDLDGQHFRSLKSPPGSDRGSTGSSDLNDQEPGPRTPKSSRSNGVTPGTQSSPAPSTRTVTSVISREYGFENSMDLAAIEGTSQELTKSHRRNTSGTPSIAVSGTSLSSDQSRSELDLSESFTEDSEDTVSIRSKSVPGALDKDSLEETEESIDALVSSQLSTNTHRLASGLSTTSLNSMMSVYSETGDYGNVKVSGEILLHISYCYKTGGLYIFVKNCRNLAIGDEKKQRTDAYVKSYLLPDKSRNNKRKTKIRTGTNPEFNETLKYTISHTQLETRTLQLSVWHYDRFGRNSFLGEVEIPFDSWNFENPTDEWFVLQPKVEFAPDIGLQYKGELTVVLRYIPPEENLMLPPEQLQGNKTFKKGKKKESPVISGGILEVFIKEAKNLTAVKSGGTSDSFVKGYLLPDDSKATKHKTLVIKKSVNPQWNHTFMFSGIHPQDIKNVCLELTIWDKEAFSSNIFLGGVRLNSGSGVSHGKNVDWMDSQGEEQRLWQKMANNPGTPFEGVLMLRSSMGKCRL
B2: FYCO1 (protein, UniProt Q9BQS8 1-1478)
chain: MASTNAESQLQRIIRDLQDAVTELSKEFQEAGEPITDDSTSLHKFSYKLEYLLQFDQKEKATLLGNKKDYWDYFCACLAKVKGANDGIRFVKSISELRTSLGKGRAFIRYSLVHQRLADTLQQCFMNTKVTSDWYYARSPFLQPKLSSDIVGQLYELTEVQFDLASRGFDLDAAWPTFARRTLTTGSSAYLWKPPSRSSSMSSLVSSYLQTQEMVSNFDLNSPLNNEALEGFDEMRLELDQLEVREKQLRERMQQLDRENQELRAAVSQQGEQLQTERERGRTAAEDNVRLTCLVAELQKQWEVTQATQNTVKELQTCLQGLELGAAEKEEDYHTALRRLESMLQPLAQELEATRDSLDKKNQHLASFPGWLAMAQQKADTASDTKGRQEPIPSDAAQEMQELGEKLQALERERTKVEEVNRQQSAQLEQLVKELQLKEDARASLERLVKEMAPLQEELSGKGQEADQLWRRLQELLAHTSSWEEELAELRREKKQQQEEKELLEQEVRSLTRQLQFLETQLAQVSQHVSDLEEQKKQLIQDKDHLSQQVGMLERLAGPPGPELPVAGEKNEALVPVNSSLQEAWGKPEEEQRGLQEAQLDDTKVQEGSQEEELRQANRELEKELQNVVGRNQLLEGKLQALQADYQALQQRESAIQGSLASLEAEQASIRHLGDQMEASLLAVRKAKEAMKAQMAEKEAILQSKEGECQQLREEVEQCQQLAEARHRELRALESQCQQQTQLIEVLTAEKGQQGVGPPTDNEARELAAQLALSQAQLEVHQGEVQRLQAQVVDLQAKMRAALDDQDKVQSQLSMAEAVLREHKTLVQQLKEQNEALNRAHVQELLQCSEREGALQEERADEAQQREEELRALQEELSQAKCSSEEAQLEHAELQEQLHRANTDTAELGIQVCALTVEKERVEEALACAVQELQDAKEAASREREGLERQVAGLQQEKESLQEKLKAAKAAAGSLPGLQAQLAQAEQRAQSLQEAAHQELNTLKFQLSAEIMDYQSRLKNAGEECKSLRGQLEEQGRQLQAAEEAVEKLKATQADMGEKLSCTSNHLAECQAAMLRKDKEGAALREDLERTQKELEKATTKIQEYYNKLCQEVTNRERNDQKMLADLDDLNRTKKYLEERLIELLRDKDALWQKSDALEFQQKLSAEERWLGDTEANHCLDCKREFSWMVRRHHCRICGRIFCYYCCNNYVLSKHGGKKERCCRACFQKLSEGPGSPDSSGSGTSQGEPSPALSPASPGPQATGGQGANTDYRPPDDAVFDIITDEELCQIQESGSSLPETPTETDSLDPNAAEQDTTSTSLTPEDTEDMPVGQDSEICLLKSGELMIKVPLTVDEIASFGEGSRELFVRSSTYSLIPITVAEAGLTISWVFSSDPKSISFSVVFQEAEDTPLDQCKVLIPTTRCNSHKENIQGQLKVRTPGIYMLIFDNTFSRFVSKKVFYHLTVDRPVIYDGSDFL
B3: ARHGAP26 (protein, UniProt Q9UNA1 1-814)
chain: MGLPALEFSDCCLDSPHFRETLKSHEAELDKTNKFIKELIKDGKSLISALKNLSSAKRKFADSLNEFKFQCIGDAETDDEMCIARSLQEFATVLRNLEDERIRMIENASEVLITPLEKFRKEQIGAAKEAKKKYDKETEKYCGILEKHLNLSSKKKESQLQEADSQVDLVRQHFYEVSLEYVFKVQEVQERKMFEFVEPLLAFLQGLFTFYHHGYELAKDFGDFKTQLTISIQNTRNRFEGTRSEVESLMKKMKENPLEHKTISPYTMEGYLYVQEKRHFGTSWVKHYCTYQRDSKQITMVPFDQKSGGKGGEDESVILKSCTRRKTDSIEKRFCFDVEAVDRPGVITMQALSEEDRRLWMEAMDGREPVYNSNKDSQSEGTAQLDSIGFSIIRKCIHAVETRGINEQGLYRIVGVNSRVQKLLSVLMDPKTASETETDICAEWEIKTITSALKTYLRMLPGPLMMYQFQRSFIKAAKLENQESRVSEIHSLVHRLPEKNRQMLQLLMNHLANVANNHKQNLMTVANLGVVFGPTLLRPQEETVAAIMDIKFQNIVIEILIENHEKIFNTVPDMPLTNAQLHLSRKKSSDSKPPSCSERPLTLFHTVQSTEKQEQRNSIINSSLESVSSNPNSILNSSSSLQPNMNSSDPDLAVVKPTRPNSLPPNPSPTSPLSPSWPMFSAPSSPMPTSSTSSDSSPVRSVAGFVWFSVAAVVLSLARSSLHAVFSLLVNFVPCHPNLHLLFDRPEEAVHEDSSTPFRKAKALYACKAEHDSELSFTAGTVFDNVHPSQEPGWLEGTLNGKTGLIPENYVEFL

Key:
[1] = biological target: T1, HA-tagged RAB27B (human), O00194; test: affinity purification with mass spectrometry; 293T-REx cells inducibly expressing N-terminally HA-tagged baits; lysis in MCLB (50 mM Tris pH 7.4, 150 mM NaCl, 0.5% NP40); anti-HA-agarose, elution with HA peptide, trypsin, LC-MS/MS; CompPASS, HCIPs with WDN >=1 and APSM >=2; settings: remark: other sources report otherwise
T1 chain: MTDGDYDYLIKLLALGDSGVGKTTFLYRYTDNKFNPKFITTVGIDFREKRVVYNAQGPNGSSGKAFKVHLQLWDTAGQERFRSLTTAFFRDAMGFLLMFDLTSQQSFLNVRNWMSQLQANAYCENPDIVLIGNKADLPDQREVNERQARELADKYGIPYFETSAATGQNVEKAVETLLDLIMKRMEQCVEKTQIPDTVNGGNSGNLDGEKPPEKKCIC

[2] = biological target: T2, HA-tagged DENND2C (DENN domain containing 2C) (human) (UniProt Q68D51); test: as above
T2 sequence: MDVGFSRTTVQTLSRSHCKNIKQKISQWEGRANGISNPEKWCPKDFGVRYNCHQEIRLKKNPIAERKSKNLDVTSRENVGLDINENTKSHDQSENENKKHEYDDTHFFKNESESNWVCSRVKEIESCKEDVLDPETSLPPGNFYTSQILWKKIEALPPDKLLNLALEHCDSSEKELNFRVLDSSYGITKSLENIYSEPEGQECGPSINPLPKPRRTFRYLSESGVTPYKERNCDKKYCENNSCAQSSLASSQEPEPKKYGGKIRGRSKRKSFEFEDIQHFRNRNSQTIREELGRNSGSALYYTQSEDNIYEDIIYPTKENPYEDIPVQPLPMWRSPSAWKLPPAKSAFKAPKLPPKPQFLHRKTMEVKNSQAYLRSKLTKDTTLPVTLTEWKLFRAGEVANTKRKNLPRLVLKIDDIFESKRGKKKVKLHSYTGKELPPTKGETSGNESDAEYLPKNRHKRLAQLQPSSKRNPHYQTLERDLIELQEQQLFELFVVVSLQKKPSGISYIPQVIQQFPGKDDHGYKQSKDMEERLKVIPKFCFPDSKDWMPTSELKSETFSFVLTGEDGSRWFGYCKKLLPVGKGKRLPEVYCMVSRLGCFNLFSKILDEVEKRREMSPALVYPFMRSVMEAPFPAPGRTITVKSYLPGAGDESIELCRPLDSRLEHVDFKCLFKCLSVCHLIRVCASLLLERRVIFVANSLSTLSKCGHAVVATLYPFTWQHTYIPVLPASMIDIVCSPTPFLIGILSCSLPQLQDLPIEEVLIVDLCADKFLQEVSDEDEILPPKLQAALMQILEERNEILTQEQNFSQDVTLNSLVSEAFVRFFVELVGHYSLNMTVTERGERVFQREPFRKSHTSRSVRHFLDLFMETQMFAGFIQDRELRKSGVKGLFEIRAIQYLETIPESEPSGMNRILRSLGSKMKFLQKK

Binder | binding [1] | binding [2]
B1 | binds | –
B2 | – | binds
B3 | – | binds
